Several values for one entry are separate records, joined by “and”; a condition that tells them apart may be missing. Identical values can stand only once. Some of the results follow. The main result of the screen is listed elsewhere. These columns were measured beside it and carry no call. Most of these compounds were active or inconclusive in the main read-out, so they are no random draw. Words in brackets tell the shape of the fitted curve; partial curves, single points and poor fits give uncertain potencies.

As usually defined, the AC50 is the concentration at which the activity in the assay is half-maximal.

The nature of this assay: Cell signaling CRE-BLA (Fsk stim). As to conditions: CHO CRE-bla reporter (cAMP response element driving beta-lactamase), forskolin EC10, beta-lactamase ratio; measured here: 460 nm blue channel. The method in brief: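 Forskolin analogue NKH 477 at EC10 stimulated CRE-driven beta-lactamase in CHO cells alongside compound dilution series. Beta-lactamase was measured with CCF4, excitation 405 nm, emission ratio 460/530 nm.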
`CCn1ncc(Br)c1C(=O)Nc1sc2c(c1C(=O)OC)CCC2`: the concentration at half-maximal activity (AC50) is 10 µM [rising, single point].

Take `N#Cc1cccc(-c2nc(NCc3cccnc3)c3ccccc3n2)c1`: the AC50 was 10 µM [rising, partial curve].

In the case of `COc1ccc(-n2c(=O)c(C)nc3cnc(Oc4cccc(Cl)c4)nc32)cc1`, the half-maximal activity concentration (AC50) was 10 µM [rising, partial curve].

For `c1ccc(-c2ccc(-c3ccc(C4=NCCN4)cc3)o2)cc1`, the AC50 is 0.794 µM [rising, partial curve].

In the case of `C=CCn1c(SCC(=O)Nc2ccc3c(c2)OCO3)nnc1-c1cc(Br)ccc1O`, the AC50 was 25.1 µM [falling, single point].

`Cc1ccc(Nc2nnc(SCc3cc(=O)n4ccsc4n3)s2)c(C)c1`: the AC50 was 10 µM [rising, single point].

Take `Cc1cc(C)n2cc(CSc3nnnn3-c3ccccc3C)nc2n1`: the half-maximal activity concentration (AC50) was 6.31 µM [rising, partial curve].

In the case of `COC(=O)c1ccccc1NC(=O)c1cccs1`, the AC50 was 12.6 µM [rising, single point].

For `COC(=O)Nc1c(C)n(C)n(-c2ccccc2)c1=O`, the AC50 was 0.0501 µM [rising, full curve].

Turning to `c1nc2sc3c(c2c2nnnn12)CCCC3`, the half-maximal activity concentration (AC50) was 0.2 µM [falling, full curve].

Take `CCCCCC(=O)N(O)C1CC(=O)N(c2ccccc2)C1=O` (stereo not drawn): the AC50 is 10 µM [falling, partial curve].

In the case of `O=C1c2ccccc2-c2n[nH]c3cccc1c23`, the AC50 is 15.8 µM [rising, partial curve] and 5.01 µM [rising, full curve].

For the molecule `Cc1cc(Nc2ccc(F)cc2C)n2nc(C)nc2n1`, the AC50 was 10 µM [rising, partial curve].

On to `COc1cccc(-c2nccc(-n3ccnc3)n2)c1`, for which the concentration at half-maximal activity (AC50) was 10 µM [rising, partial curve].

Turning to `CCCc1nc2oc3c(NCCN(C)C)ncnc3c2c2c1CCCC2`, the AC50 was 6.31 µM [rising, partial curve].

As for `Cc1ccc(C(=O)Nc2ccccc2N2CCN(C(=O)C(C)C)CC2)cc1C`, the half-maximal activity concentration (AC50) is 15.8 µM [falling, single point].

For the molecule `CC(C)[C@H](CO)Nc1nc(Nc2cc(N)cc(Cl)c2)c2ncn(C(C)C)c2n1`, the AC50 was 15.8 µM [falling, partial curve].

As for `COc1cc2c(c(OC)c1OC)-c1ccc(OC)c(=O)cc1[C@@H](NC(C)=O)CC2`, the AC50 was 251 nM [rising, full curve] and 501 nM [rising, full curve] and 1.26 µM [rising, full curve].

On to `CCc1nc(SCC(=O)N2CCC(C)CC2)c2c(=O)n(C)c(=O)n(C)c2n1`, for which the AC50 is 10 µM [rising, partial curve].

On to `CCC(Sc1nc(-c2ccccc2)c(C#N)c(=O)[nH]1)C(=O)Nc1cc(C)on1` (stereo not drawn), for which the concentration at half-maximal activity (AC50) is 0.251 µM [falling, full curve].

As for `COc1ccc(-c2cc(C(F)F)n3ncc(C(=O)NCCCN4CCCC4=O)c3n2)cc1`, the half-maximal activity concentration (AC50) is 6.31 µM [rising, partial curve].

`CO/C=C/C#CC1(O)CCN(C)CC1`: the AC50 was 3.16 µM [falling, partial curve].

Consider `COCCn1c(=O)c(-c2ccc(F)cc2)nc2cnc(N(C)C)nc21`, for which the AC50 is 2 µM [rising, full curve].

As to `Cc1ccccc1-n1nc2c(c1NC(=O)c1cc3ccccc3oc1=O)CS(=O)C2` (stereo not drawn), the AC50 was 2 µM [rising, full curve].

For the molecule `Cc1oc(C(=O)Nc2ccc(O)cc2)cc1COc1ccccc1`, the AC50 was 25.1 µM [falling, single point].

With `COCCCn1c(=S)[nH]c2ncccc2c1=O`, the AC50 was 0.1 µM [rising, full curve].

Consider `CCOc1ccc(-c2nc(CSCC(=O)N3CCN(c4cccc(OC)c4)CC3)c(C)o2)cc1`, for which the AC50 is 12.6 µM [falling, single point].

`COc1cc(OC)c(-c2nnc(-c3ccc(OC)c(OC)c3OC)o2)cc1OC`: the AC50 is 2 µM [rising, full curve].

As to `COc1cc(OC)c(C(=O)Nc2ncn[nH]2)cc1OC`, the concentration at half-maximal activity (AC50) was 10 µM [rising, partial curve].

For `Cc1cc(C)c(OCC(=O)Nc2cccc(NC(=O)c3ccco3)c2)c(Br)c1`, the concentration at half-maximal activity (AC50) was 0.631 µM [rising, single point].

Regarding `COC(=O)c1nnn(-c2ccccc2)c1N`, the AC50 was 0.251 µM [falling, partial curve].

As to `CCOC(=O)c1c(NC(=O)c2nn(CC)cc2Br)c(C#N)nn1-c1ccccc1`, the half-maximal activity concentration (AC50) was 10 µM [rising, partial curve].

For `NS(=O)(=O)c1cc2c(cc1Cl)N[C@@H]([C@@H]1C[C@@H]3C=C[C@H]1C3)NS2(=O)=O`, the concentration at half-maximal activity (AC50) is 31.6 µM [falling, single point].

On to `O=S(=O)(c1cccc(-c2nnc(-c3cccnc3)o2)c1)N1CCCCC1`, for which the AC50 is 10 µM [rising, partial curve].

With `CC(C)CCn1c(SCC(=O)c2ccccc2)nc2c1c(=O)[nH]c(=O)n2C`, the AC50 is 3.16 µM [rising, full curve, poor fit].

For the molecule `Cc1ccc(C)c(S(=O)(=O)C(C#N)c2nc3ccccc3nc2N2CCCC2)c1` (stereo not drawn), the concentration at half-maximal activity (AC50) was 25.1 µM [rising, single point].

Take `Cc1c(-c2nc(N)nc(Nc3ccccc3)n2)oc2ccccc12`: the half-maximal activity concentration (AC50) is 0.158 µM [rising, full curve].

Take `N#Cc1ccccc1-c1ccc2ncnc(NC3CC3)c2c1`: the concentration at half-maximal activity (AC50) was 7.94 µM [rising, partial curve].

Take `CCN(CC)S(=O)(=O)c1ccc(-c2nnc(SCC(=O)Nc3nc(C)cs3)o2)cc1`: the AC50 was 5.01 µM [falling, single point].

Regarding `CCOc1cc(C)nc(NCCc2ccc(OC)c(OC)c2)n1`, the concentration at half-maximal activity (AC50) was 15.8 µM [rising, partial curve].

Consider `CCOc1ccc(OCC)c2sc(C)nc12`, for which the half-maximal activity concentration (AC50) is 10 µM [rising, partial curve].

Regarding `C/C(=C\c1ccco1)C1C(C#N)=C(N)Oc2n[nH]c(-c3ccccc3)c21` (stereo not drawn), the concentration at half-maximal activity (AC50) is 15.8 µM [falling, single point].

`Cn1c(=O)c2c(SCC(=O)NCc3ccco3)nc(CC(C)(C)C)nc2n(C)c1=O`: the AC50 was 12.6 µM [rising, partial curve].

The record behind these values is PubChem BioAssay AID662 (National Center for Advancing Translational Sciences (NCATS), 2007).
